This test concerns the target EDA antigen (EDA domain of fibronectin) coated on the BIAcore sensor chip. As to the kind of experiment: SPR (BIAcore), EDA antigen-coated sensor chip. On the technique in general: Surface plasmon resonance follows binding to a sensor surface in real time, without labels.

These are yes or no findings as the source states them, for the method shown. Binding can be weak; no strength is given.

B1: F8-IL4 (F8-(murine) IL4) (protein)
chain: EVQLLESGGGLVQPGGSLRLSCAASGFTFSLFTMSWVRQAPGKGLEWVSAISGSGGSTYYADSVKGRFTISRDNSKNTLYLQMNSLRAEDTAVYYCAKSTHLYLFDYWGQGTLVTVSSGGSGGEIVLTQSPGTLSLSPGERATLSCRASQSVSMPFLAWYQQKPGQAPRLLIYGASSRATGIPDRFSGSGSGTDFTLTISRLEPEDFAVYYCQQMRGRPPTFGQGTKVEIKSSSSGSSSSGSSSSGHIHGCDKNHLREIIGILNEVTGEGTPCTEMDVPNVLTATKNTTESELVCRASKVLRIFYLKHGKTPCLKKNSSVLMELQRLFRAFRCLDSSISCTMNESKSTSLKDFLESLKSIMQMDYS
B1: the binding entry is given as “binds”.

The values above are taken from US20160200789A1, “IL4 CONJUGATED TO ANTIBODIES AGAINST EXTRACELLULAR MATRIX COMPONENTS” (PHILOGEN S.P.A., priority 2013, published 2016).
